In the supplement of paper PMC12542422:
Structures can show the parent of a compound that is named as a salt. ± gives the standard deviation of the averaged measurements. Some of the results follow. Values are raw readings; no control value is given beside them.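 Ribosome-assembly readouts in HeLa cells were imaged via ENP1 staining, with or without export block, or inducible tagged ribosomal protein reporters. Machine learning classified per-cell signal location versus solvent (DMSO) controls. Hits surpassed the DMSO false-positive mean by five standard deviations and were visually confirmed; three biological replicates.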

Key:
[1] = system: HeLa K (ENP1 immunofluorescence, +LMB); assay: fraction of cells with nucleolar or nucleolar/nucleoplasmic ENP1 signal (MainHitrate); higher = more cells with nucleolar/nuclear readout signal (for ENP1 -LMB: less RNAPI inhibition; for +LMB ENP1 and RP reporters: stronger nuclear/nucleolar retention, i.e. ribosome biogenesis defect); details: concentration: 1 µM; treatment time: 6 h; ENP1 +LMB; leptomycin B: 20 nM, last 1.5 h
[2] = system: HeLa K (ENP1 immunofluorescence, no LMB); assay: as above; details: concentration: 1 µM; treatment time: 6 h; ENP1 -LMB; leptomycin B: none
HeLa RPS2-YFP reporter = assay: fraction of reporter-positive cells with nuclear (nucleolar or nucleolar/nucleoplasmic) RPS2-YFP (MainHitrate); higher = more cells with nucleolar/nuclear readout signal (for ENP1 -LMB: less RNAPI inhibition; for +LMB ENP1 and RP reporters: stronger nuclear/nucleolar retention, i.e. ribosome biogenesis defect); details: concentration: 1 µM; treatment time: 6 h
HeLa RPL29-GFP reporter = assay: fraction of reporter-positive cells with nuclear (nucleolar or nucleolar/nucleoplasmic) RPL29-GFP (MainHitrate); higher = more cells with nucleolar/nuclear readout signal (for ENP1 -LMB: less RNAPI inhibition; for +LMB ENP1 and RP reporters: stronger nuclear/nucleolar retention, i.e. ribosome biogenesis defect); details: concentration: 1 µM; treatment time: 6 h

| Structure (SMILES) | fraction [1] | fraction [2] | fraction of reporter-positive cells with nuclear (HeLa RPS2-YFP reporter) | fraction of reporter-positive cells with nuclear (HeLa RPL29-GFP reporter) |
| --- | --- | --- | --- | --- |
| N#CC[C@H](C1CCCC1)n1cc(-c2ncnc3[nH]ccc23)cn1 | 0.114 ± 0.13 | 0.9988 ± 0.0021 | 0.0958 ± 0.056 | 0.201 ± 0.092 |
| Cc1ncc([N+](=O)[O-])n1CC(C)O (configuration not stated) [Secnidazole (Flagentyl)] | 0.159 ± 0.25 | 0.986 ± 0.024 | 0.109 ± 0.058 | 0.219 ± 0.081 |
| CCN[C@@H]1C[C@H](N)[C@@H](O[C@H]2OC(CN)=CC[C@H]2N)[C@H](O)[C@H]1O[C@H]1OC[C@](C)(O)[C@H](NC)[C@H]1O [Netilmicin Sulfate] | 0.0812 ± 0.096 | 0.978 ± 0.037 | 0.134 ± 0.12 | 0.219 ± 0.054 |
| CC(C)NCC(O)COc1ccc(COCCOC(C)C)cc1 (configuration not stated) [Bisoprolol] | 0.092 ± 0.09 | 0.9979 ± 0.0036 | 0.124 ± 0.079 | 0.196 ± 0.046 |
| CC(C)Cn1cnc2c(N)nc3ccccc3c21 [Imiquimod] | 0.126 ± 0.14 | 0.9983 ± 0.0029 | 0.103 ± 0.071 | 0.222 ± 0.058 |
| NCCS(=O)(=O)O [Taurine] | 0.142 ± 0.22 | 0.991 ± 0.015 | 0.111 ± 0.073 | 0.214 ± 0.081 |
| Cc1ccc(N(CC2=NCCN2)c2cccc(O)c2)cc1 [Phentolamine mesilate] | 0.138 ± 0.2 | 0.9948 ± 0.0089 | 0.129 ± 0.057 | 0.223 ± 0.061 |
| CC(=O)OCC[N+](C)(C)C [Acetylcholine chloride] | 0.0716 ± 0.1 | 0.9952 ± 0.0083 | 0.0682 ± 0.046 | 0.233 ± 0.057 |
| CCn1cc(C(=O)O)c(=O)c2cc(F)c(N3CCNCC3)cc21 [Norfloxacin (Norxacin)] | 0.075 ± 0.059 | 0.9984 ± 0.0028 | 0.0909 ± 0.031 | 0.21 ± 0.045 |
| O=c1ccn([C@@H]2O[C@H](CO)[C@@H](O)[C@H]2O)c(=O)[nH]1 [Uridine] | 0.135 ± 0.19 | 0.99 ± 0.017 | 0.15 ± 0.069 | 0.224 ± 0.12 |
| CCOC(=O)c1ccc(N)cc1 [Benzocaine] | 0.118 ± 0.17 | 0.978 ± 0.038 | 0.105 ± 0.097 | 0.211 ± 0.051 |
| CCOc1cc(CC(=O)N[C@@H](CC(C)C)c2ccccc2N2CCCCC2)ccc1C(=O)O [Repaglinide] | 0.0765 ± 0.065 | 0.9991 ± 0.0015 | 0.148 ± 0.086 | 0.211 ± 0.093 |
| CCCCC1=NC2(CCCC2)C(=O)N1Cc1ccc(-c2ccccc2-c2nnn[nH]2)cc1 [Irbesartan (Avapro)] | 0.0826 ± 0.061 | 0.9987 ± 0.0023 | 0.115 ± 0.095 | 0.224 ± 0.056 |
| CN1C(CCl)Nc2cc(Cl)c(S(N)(=O)=O)cc2S1(=O)=O (configuration not stated) [Methyclothiazide] | 0.0824 ± 0.11 | 0.992 ± 0.014 | 0.108 ± 0.079 | 0.218 ± 0.05 |
| Cc1c(N(C)C)c(=O)n(-c2ccccc2)n1C [Amidopyrine] | 0.135 ± 0.2 | 0.986 ± 0.024 | 0.121 ± 0.08 | 0.205 ± 0.055 |
| CNC(=C[N+](=O)[O-])NCCSCc1csc(CN(C)C)n1 [Nizatidine] | 0.14 ± 0.21 | 0.989 ± 0.019 | 0.123 ± 0.07 | 0.226 ± 0.059 |
| CC(=O)O[C@@]12CO[C@@H]1C[C@H](O)[C@@]1(C)C(=O)[C@H](O)C3=C(C)[C@@H](OC(=O)[C@H](O)[C@@H](NC(=O)OC(C)(C)C)c4ccccc4)C[C@@](O)([C@@H](OC(=O)c4ccccc4)[C@H]21)C3(C)C [Docetaxel (Taxotere)] | 0.0995 ± 0.068 | 0.993 ± 0.012 | 0.153 ± 0.12 | 0.269 ± 0.087 |
| O=C(O)CSCC(=O)NC1CCSC1=O (configuration not stated) [Erdosteine] | 0.09 ± 0.13 | 0.994 ± 0.011 | 0.0835 ± 0.057 | 0.216 ± 0.08 |
| CCC[S+]([O-])c1ccc2[nH]c(NC(=O)OC)nc2c1 (configuration not stated) [Albendazole Oxide (Ricobendazole)] | 0.0657 ± 0.074 | 0.991 ± 0.015 | 0.122 ± 0.062 | 0.245 ± 0.071 |
| CC(=O)CCCCn1c(=O)c2c(ncn2C)n(C)c1=O [Pentoxifylline] | 0.216 ± 0.28 | 0.9988 ± 0.0021 | 0.128 ± 0.15 | 0.275 ± 0.2 |
| CCN(Cc1ccncc1)C(=O)C(CO)c1ccccc1 (configuration not stated) [Tropicamide] | 0.124 ± 0.19 | 0.994 ± 0.011 | 0.097 ± 0.054 | 0.212 ± 0.085 |
| COc1cc2nc(N3CCN(C(=O)C4COc5ccccc5O4)CC3)nc(N)c2cc1OC (configuration not stated) [Doxazosin mesylate] | 0.109 ± 0.079 | 0.9982 ± 0.0031 | 0.124 ± 0.06 | 0.244 ± 0.073 |
| COc1c(N2CCNC(C)C2)c(F)cc2c(=O)c(C(=O)O)cn(C3CC3)c12 (configuration not stated) [Gatifloxacin] | 0.117 ± 0.022 | 0.9983 ± 0.0029 | 0.109 ± 0.068 | 0.193 ± 0.07 |
| Nc1nnc(-c2cccc(Cl)c2Cl)c(N)n1 [Lamotrigine] | 0.107 ± 0.15 | 0.98 ± 0.035 | 0.126 ± 0.099 | 0.251 ± 0.076 |
| COc1ccccc1N1CCN(CCCNc2cc(=O)n(C)c(=O)n2C)CC1 [Urapidil HCl] | 0.101 ± 0.14 | 0.991 ± 0.015 | 0.122 ± 0.061 | 0.225 ± 0.073 |
| N=C(N)NS(=O)(=O)c1ccc(N)cc1 [Sulfaguanidine] | 0.0915 ± 0.12 | 0.986 ± 0.024 | 0.111 ± 0.078 | 0.213 ± 0.068 |
| CC(=O)Nc1c(I)c(C(=O)N[C@H]2C(O)O[C@H](CO)[C@@H](O)[C@@H]2O)c(I)c(N(C)C(C)=O)c1I (some centres not stated) [Metrizamide] | 0.166 ± 0.23 | 0.993 ± 0.012 | 0.178 ± 0.17 | 0.28 ± 0.24 |
| Cc1nnc(NS(=O)(=O)c2ccc(N)cc2)s1 [Sulfamethizole (Proklar)] | 0.0757 ± 0.096 | 0.9951 ± 0.0085 | 0.116 ± 0.083 | 0.261 ± 0.14 |

Complete entries, looked up by structure. Order of values: fraction [1]	fraction [2]	fraction of reporter-positive cells with nuclear (HeLa RPS2-YFP reporter)	fraction of reporter-positive cells with nuclear (HeLa RPL29-GFP reporter)
N#CC[C@H](C1CCCC1)n1cc(-c2ncnc3[nH]ccc23)cn1 is listed with 0.114 ± 0.13	0.9988 ± 0.0021	0.0958 ± 0.056	0.201 ± 0.092
N=C(N)NS(=O)(=O)c1ccc(N)cc1 [Sulfaguanidine] is listed with 0.0915 ± 0.12	0.986 ± 0.024	0.111 ± 0.078	0.213 ± 0.068
